# Percent effect of library compounds

Amino acid sequences for entries named in this document (tags omitted).
UniProt P9WNZ1, whole entry: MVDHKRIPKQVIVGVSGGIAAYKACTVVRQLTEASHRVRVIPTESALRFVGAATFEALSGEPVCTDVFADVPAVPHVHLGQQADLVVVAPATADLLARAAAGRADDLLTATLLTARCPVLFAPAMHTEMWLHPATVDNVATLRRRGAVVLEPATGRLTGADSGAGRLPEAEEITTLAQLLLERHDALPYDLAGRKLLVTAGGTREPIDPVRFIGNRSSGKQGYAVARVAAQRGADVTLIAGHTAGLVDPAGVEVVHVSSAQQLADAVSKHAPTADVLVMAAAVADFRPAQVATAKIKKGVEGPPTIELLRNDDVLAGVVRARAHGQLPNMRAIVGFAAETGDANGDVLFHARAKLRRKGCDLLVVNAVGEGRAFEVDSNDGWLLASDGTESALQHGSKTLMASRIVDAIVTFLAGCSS

CoaBC: 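Enzyme assay of CoaBC with a phosphate dye (Biomol Green) read at 650 nm. Target: Coenzyme A biosynthesis protein CoaBC, Mycobacterium tuberculosis (UniProt P9WNZ1). Tested at 30 µM. Higher reads as stronger inhibition, judged from the few compounds that gave an IC50. Most strong results did not repeat in a second test. Of about 67,000 compounds tested this way, about 40 (0.06%) reached 50% or more in at least one test.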
Leishmania in macrophages: 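Cell assay of Leishmania donovani living inside macrophages; the read-out is not stated. Concentration: 30 µM. The record gives no direction; compounds that gave an IC50 in retests scored well above the rest, so higher reads as stronger inhibition. Of about 69,000 compounds tested this way, about 1,000 (1.5%) reached 50% or more in at least one test.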

Results are given as percent effect.
The controls that fix the scale are not given in the record; negative values are as filed.
This is an unselected part of the compounds tested.
A dash means the value is not listed here; it may have been measured.

compound | CoaBC | Leishmania in macrophages
CCCc1nnsc1C(=O)NCC1CCN(S(C)(=O)=O)CC1 | 9.168% | 29.89%
COc1ncccc1CNC(=O)c1cnccn1 | -1.579% | -0.7565%
CCOc1ccc(NC(=O)N(CCC#N)Cc2ccccn2)cc1F | -4.925% | -25.32%
CCCc1cc(NC2CCc3nc(C)nn3C2)n2ncnc2n1 (stereo not given) | 1.921% | -17.3%
CCN(C(=O)c1cccc2c1OCO2)c1ccccc1 | 5.556% | -18.73%
[H][C@@]1([C@H](C)C(=O)O)CCc2c(C)cc(OCCC)c(C)c2C1 | - | -10.87%
N#Cc1cccc(CN2C(=O)c3ccccc3CS2(=O)=O)c1 | -3.815% | 17.35%
CCn1ncc2c1CCCC2NCc1ccccc1N1CCOCC1 (stereo not given) | 3.69% | -7.622%
Cc1noc(C)c1S(=O)(=O)N1CCC(Oc2ccccn2)CC1 | 11.21% | 9.022%
NS(=O)(=O)c1cnc(NCC2(c3ccccc3)CCC2)s1 | -1.499% | -12.28%
NC(=O)C1CCCN(Cc2ccc(C(=O)Nc3cnns3)cc2)C1 (stereo not given) | -1.294% | -13.95%
Cn1nccc1NCc1cc2cc(F)ccc2o1 | -1.928% | 26.54%
FC(F)(F)COCCN1CCOC(Cn2cccn2)C1 (stereo not given) | 11.07% | 6.281%
O=C(O)C(F)(F)F.[H][C@@]12CCN(c3ccc(C)nn3)[C@]1([H])CC[C@H](C(=O)NCc1ccco1)O2 | - | 20.24%
[H][C@@]12CCN(C3CCOCC3)[C@]1([H])CC[C@@H](c1nnc(C)o1)O2 | - | 12.8%
COCC(NC1CCSCC1)c1ccnn1C (stereo not given) | -2.526% | 6.563%
CCn1c(CC2CCN(C(=O)C3CCOC3)CC2)nn(C)c1=O (stereo not given) | 2.415% | -20.44%
CCn1nc2c(cc1=O)CN(Cc1nc(-c3ccccn3)no1)CC2 | 6.995% | 19.11%
CCn1cnnc1CNC(=O)C1CCCN(Cc2cccc(F)c2)C1 (stereo not given) | 4.762% | 6.921%
CC(=O)c1cccc(NC(=O)Cn2nc(-c3cccs3)oc2=O)c1 | 5.747% | -16.56%
Cc1cc(NC(=O)CCn2nc(C)c3ccccc32)n(C(C)C)n1 | 3.061% | 2.982%
Cc1cc(C2CCCN2C(=O)c2cc3c(s2)CCC3)on1 (stereo not given) | -2.394% | 12.16%
O=C(O)C(F)(F)F.c1ccc(OCc2noc3c2CN(c2ncccn2)CC3)nc1 | - | 9.699%
Cc1nccn1-c1cc(CNC(=O)CCS(=O)(=O)C2CCCC2)ccn1 | 2.738% | -17.71%
CN(C)CC(=O)N1Cc2ncn(C)c2C(COCC2CCOCC2)C1 (stereo not given) | 3.046% | 43.54%
NC(=O)c1cnc(NCC(=O)NCc2ccccc2)c(Cl)c1 | -1.463% | -10.11%
CC(C)N(CCNc1nc(C2CCCC2)nc2c1cnn2C)C(C)C | 2.061% | -3.587%
CN1CCN(Cc2ccccc2CNC(=O)c2cc(Br)ccc2F)CC1 | -22.76% | 22.22%
c1ccc2oc(NC3CCCN(Cc4noc(C5CC5)n4)C3)nc2c1 (stereo not given) | -13.01% | 10.97%
Cc1cccc(C(=O)N2CCn3cc(CNC(=O)CC4CC4)nc3C2)n1 | 1.269% | 33.25%
CCOC(=O)N1CC2(CCNCC2)c2cc(Cl)ccc21 | -1.647% | -
CCn1nc(C)c2c1cnn2CC(=O)NC(C)c1cccc(OC)c1 (stereo not given) | 3.883% | 5.723%
Cc1oncc1C(=O)N1CCC2(CCN(Cc3ccccn3)C2=O)C1 (stereo not given) | -1.075% | -19.39%
O=C(O)C(F)(F)F.[H][C@]12CCCN(Cc3nccs3)[C@@]1([H])CN(C(=O)c1ccco1)C2 | - | 9.65%
CCC(=O)N1CCC(c2nc(N3CCOCC3)ncc2S(C)(=O)=O)CC1 | 10.27% | 28.29%
COc1cc(C)nc(N2CCN(C(=O)CCc3cccs3)CC2)n1 | 2.934% | 18.21%
CCN(CC)CCCNCc1cc2cccc(C)c2[nH]c1=O | -0.8589% | -3.573%
Cn1ccnc1CN1CC[C@@H]2[C@@H](CCC(=O)N2CCc2c[nH]cn2)C1 | 5.212% | -
CC(C)n1ccnc1C1CCCN(c2ncccc2C(N)=O)C1 (stereo not given) | 2.314% | 15.9%
Cc1nn(C)cc1CN(C)C(=O)c1ccccn1 | -0.1148% | -12.35%
CSC1=Nc2c(cnn2-c2ccccc2)C2=NCCCN12 | 1.579% | 19.42%
COc1ccc(NC(=O)NCCCn2nc3ccccn3c2=O)cc1 | 1.048% | -12.27%

5 of the entries, repeated:

{"compound": "COc1ccc(NC(=O)NCCCn2nc3ccccn3c2=O)cc1", "CoaBC": 1.048, "Leishmania in macrophages": -12.27}
{"compound": "CC(C)N(CCNc1nc(C2CCCC2)nc2c1cnn2C)C(C)C", "CoaBC": 2.061, "Leishmania in macrophages": -3.587}
{"compound": "Cc1cc(C2CCCN2C(=O)c2cc3c(s2)CCC3)on1", "stereo": "stereo not given", "CoaBC": -2.394, "Leishmania in macrophages": 12.16}
{"compound": "CSC1=Nc2c(cnn2-c2ccccc2)C2=NCCCN12", "CoaBC": 1.579, "Leishmania in macrophages": 19.42}
{"compound": "N#Cc1cccc(CN2C(=O)c3ccccc3CS2(=O)=O)c1", "CoaBC": -3.815, "Leishmania in macrophages": 17.35}

Data taken from ChEMBL document CHEMBL3988442, “University of Dundee, Small-Polar-MMV Screening Library” (2021).